# doi:10.1101/2022.04.06.487319 (bioRxiv, 2022)
# These are yes or no findings as the source states them, for the method shown.
# B1: strep-Hop1 (full length, Hop1-Red1 complex from Hi5 cells) (natural protein, Saccharomyces cerevisiae, UniProt P20050 1-605, looked up)
# chain: MSNKQLVKPKTETKTEITTEQSQKLLQTMLTMSFGCLAFLRGLFPDDIFVDQRFVPEKVEKNYNKQNTSQNNSIKIKTLIRGKSAQADLLLDWLEKGVFKSIRLKCLKALSLGIFLEDPTDLLENYIFSFDYDEENNVNINVNLSGNKKGSKNADPENETISLLDSRRMVQQLMRRFIIITQSLEPLPQKKFLTMRLMFNDNVDEDYQPELFKDATFDKRATLKVPTNLDNDAIDVGTLNTKHHKVALSVLSAATSSMEKAGNTNFIRVDPFDLILQQQEENKLEESVPTKPQNFVTSQTTNVLGNLLNSSQASIQPTQFVSNNPVTGICSCECGLEVPKAATVLKTCKSCRKTLHGICYGNFLHSSIEKCFTCIFGPSLDTKWSKFQDLMMIRKVFRFLVRKKKGFPASITELIDSFINVEDQNNEVKERVAFALFVFFLDETLCLDNGGKPSQTIRYVTSSVLVDVKGIVIPNTRKQLNVNHEYKWHFTTSSPKAESFYQEVLPNSRKQVESWLQDITNLRKVYSEALSPSSTLQELDLNSSLPTQDPIISGQKRRRYDLDEYLEEDKSSVVNDTIKAKDFDESVPAKIRKISVSKKTLKSNW
# Target: strep-Hop1 (full length, Hop1-Red1 complex from Hi5 cells) (Saccharomyces cerevisiae) (UniProt P20050)
# Assay: mass photometry
binder,measurement,value
B1,binding,no binding (tested: 30 nM)
